Test [1] addresses Flag-tagged full-length Aurora B kinase (AURKB) (human) (UniProt Q96GD4). The experiment in a line: co-IP; anti-Flag M2 affinity gel; whole-cell lysates of transfected 293T cells, 1.0 mg protein in lysis buffer (50 mM Tris-HCl pH 7.5, 150 mM NaCl, 1% NP-40, 5 mM EDTA, 5 mM EGTA); 4 °C, 3-4 h; Western blot. (In general: In western blotting, separated proteins are transferred to a membrane and probed.)

Chains of the proteins cited; added tags and fusions are not shown.
UniProt Q96GD4: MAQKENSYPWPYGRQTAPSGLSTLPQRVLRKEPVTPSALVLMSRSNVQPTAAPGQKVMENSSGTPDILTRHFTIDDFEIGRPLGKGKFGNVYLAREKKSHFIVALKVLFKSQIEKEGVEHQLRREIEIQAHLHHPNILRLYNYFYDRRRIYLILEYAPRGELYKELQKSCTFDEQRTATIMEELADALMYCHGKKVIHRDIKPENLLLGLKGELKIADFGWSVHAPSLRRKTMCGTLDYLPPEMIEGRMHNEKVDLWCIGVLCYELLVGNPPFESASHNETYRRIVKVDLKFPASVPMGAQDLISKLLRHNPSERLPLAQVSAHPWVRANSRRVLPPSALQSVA

The target in test [2] is GST-AURKB (human) (UniProt Q96GD4). The experiment in a line: pull-down; in vitro GST pull-down: GST-AURKB or GST immobilised on glutathione-Sepharose beads, incubated with purified His-RecQL4-Flag; 4 °C, 2 h; Western blot with RecQL4 antibodies; both purified.

No constants are given. Whether binding was seen depends on the method and setting. For some assays here: In cells and extracts the contact can be indirect. Some results given as binding are weak or reduced against the parent protein; the word gives no strength. For some assays here: Tags and fused reporters may be left off the sequences shown.

Experimental findings from PMC6134139 are described below.

B1: endogenous (native) RecQL4 helicase of 293T cells (protein, UniProt O94761 1-1208)
chain: MERLRDVRERLQAWERAFRRQRGRRPSQDDVEAAPEETRALYREYRTLKRTTGQAGGGLRSSESLPAAAEEAPEPRCWGPHLNRAATKSPQSTPGRSRQGSVPDYGQRLKANLKGTLQAGPALGRRPWPLGRASSKASTPKPPGTGPVPSFAEKVSDEPPQLPEPQPRPGRLQHLQASLSQRLGSLDPGWLQRCHSEVPDFLGAPKACRPDLGSEESQLLIPGESAVLGPGAGSQGPEASAFQEVSIRVGSPQPSSSGGEKRRWNEEPWESPAQVQQESSQAGPPSEGAGAVAVEEDPPGEPVQAQPPQPCSSPSNPRYHGLSPSSQARAGKAEGTAPLHIFPRLARHDRGNYVRLNMKQKHYVRGRALRSRLLRKQAWKQKWRKKGECFGGGGATVTTKESCFLNEQFDHWAAQCPRPASEEDTDAVGPEPLVPSPQPVPEVPSLDPTVLPLYSLGPSGQLAETPAEVFQALEQLGHQAFRPGQERAVMRILSGISTLLVLPTGAGKSLCYQLPALLYSRRSPCLTLVVSPLLSLMDDQVSGLPPCLKAACIHSGMTRKQRESVLQKIRAAQVHVLMLTPEALVGAGGLPPAAQLPPVAFACIDEAHCLSQWSHNFRPCYLRVCKVLRERMGVHCFLGLTATATRRTASDVAQHLAVAEEPDLHGPAPVPTNLHLSVSMDRDTDQALLTLLQGKRFQNLDSIIIYCNRREDTERIAALLRTCLHAAWVPGSGGRAPKTTAEAYHAGMCSRERRRVQRAFMQGQLRVVVATVAFGMGLDRPDVRAVLHLGLPPSFESYVQAVGRAGRDGQPAHCHLFLQPQGEDLRELRRHVHADSTDFLAVKRLVQRVFPACTCTCTRPPSEQEGAVGGERPVPKYPPQEAEQLSHQAAPGPRRVCMGHERALPIQLTVQALDMPEEAIETLLCYLELHPHHWLELLATTYTHCRLNCPGGPAQLQALAHRCPPLAVCLAQQLPEDPGQGSSSVEFDMVKLVDSMGWELASVRRALCQLQWDHEPRTGVRRGTGVLVEFSELAFHLRSPGDLTAEEKDQICDFLYGRVQARERQALARLRRTFQAFHSVAFPSCGPCLEQQDEERSTRLKDLLGRYFEEEEGQEPGGMEDAQGPEPGQARLQDWEDQVRCDIRQFLSLRPEEKFSSRAVARIFHGIGSPCYPAQVYGQDRRFWRKYLHLSFHALVGLATEELLQVAR
Consider B1, for which the binding entry in test [1] was “binds”.

B2: His-RecQL4-Flag (full-length RecQL4 with N-terminal His tag and C-terminal Flag tag) (protein, UniProt O94761 1-1208)
chain: MERLRDVRERLQAWERAFRRQRGRRPSQDDVEAAPEETRALYREYRTLKRTTGQAGGGLRSSESLPAAAEEAPEPRCWGPHLNRAATKSPQSTPGRSRQGSVPDYGQRLKANLKGTLQAGPALGRRPWPLGRASSKASTPKPPGTGPVPSFAEKVSDEPPQLPEPQPRPGRLQHLQASLSQRLGSLDPGWLQRCHSEVPDFLGAPKACRPDLGSEESQLLIPGESAVLGPGAGSQGPEASAFQEVSIRVGSPQPSSSGGEKRRWNEEPWESPAQVQQESSQAGPPSEGAGAVAVEEDPPGEPVQAQPPQPCSSPSNPRYHGLSPSSQARAGKAEGTAPLHIFPRLARHDRGNYVRLNMKQKHYVRGRALRSRLLRKQAWKQKWRKKGECFGGGGATVTTKESCFLNEQFDHWAAQCPRPASEEDTDAVGPEPLVPSPQPVPEVPSLDPTVLPLYSLGPSGQLAETPAEVFQALEQLGHQAFRPGQERAVMRILSGISTLLVLPTGAGKSLCYQLPALLYSRRSPCLTLVVSPLLSLMDDQVSGLPPCLKAACIHSGMTRKQRESVLQKIRAAQVHVLMLTPEALVGAGGLPPAAQLPPVAFACIDEAHCLSQWSHNFRPCYLRVCKVLRERMGVHCFLGLTATATRRTASDVAQHLAVAEEPDLHGPAPVPTNLHLSVSMDRDTDQALLTLLQGKRFQNLDSIIIYCNRREDTERIAALLRTCLHAAWVPGSGGRAPKTTAEAYHAGMCSRERRRVQRAFMQGQLRVVVATVAFGMGLDRPDVRAVLHLGLPPSFESYVQAVGRAGRDGQPAHCHLFLQPQGEDLRELRRHVHADSTDFLAVKRLVQRVFPACTCTCTRPPSEQEGAVGGERPVPKYPPQEAEQLSHQAAPGPRRVCMGHERALPIQLTVQALDMPEEAIETLLCYLELHPHHWLELLATTYTHCRLNCPGGPAQLQALAHRCPPLAVCLAQQLPEDPGQGSSSVEFDMVKLVDSMGWELASVRRALCQLQWDHEPRTGVRRGTGVLVEFSELAFHLRSPGDLTAEEKDQICDFLYGRVQARERQALARLRRTFQAFHSVAFPSCGPCLEQQDEERSTRLKDLLGRYFEEEEGQEPGGMEDAQGPEPGQARLQDWEDQVRCDIRQFLSLRPEEKFSSRAVARIFHGIGSPCYPAQVYGQDRRFWRKYLHLSFHALVGLATEELLQVAR
For the molecule B2, the binding entry in test [2] was “binds”.
